Like-named read-outs stand apart in the source and are kept apart here. At least one compound was matched to its structure with a doubt left.
Target: human α7 nAChR (Homo sapiens, UniProt P36544)

Sequences of proteins named here, by UniProt entry; tags and fusion partners are left off. Residues count along the entry.
UniProt P36544, 23-502: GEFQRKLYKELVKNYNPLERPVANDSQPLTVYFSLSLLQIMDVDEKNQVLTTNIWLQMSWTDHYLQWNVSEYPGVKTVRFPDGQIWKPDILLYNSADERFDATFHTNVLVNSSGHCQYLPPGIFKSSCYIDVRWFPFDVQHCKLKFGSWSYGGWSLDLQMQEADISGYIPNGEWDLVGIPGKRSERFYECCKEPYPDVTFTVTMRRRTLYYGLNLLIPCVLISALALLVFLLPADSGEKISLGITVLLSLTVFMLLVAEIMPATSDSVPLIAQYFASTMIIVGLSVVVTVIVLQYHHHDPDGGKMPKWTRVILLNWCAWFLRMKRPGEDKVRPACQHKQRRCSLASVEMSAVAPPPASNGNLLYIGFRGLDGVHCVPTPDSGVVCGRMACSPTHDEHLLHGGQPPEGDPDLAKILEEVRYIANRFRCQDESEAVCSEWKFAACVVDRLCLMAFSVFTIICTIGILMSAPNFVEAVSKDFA

## CC(=O)OCC[N+](C)(C)C [ACh, acetylcholine, reference compound]
Table 1, net charge, relative to ACh maximum
  α7 Imax: 0.97 ± 0.04
Table 2, chiral compounds
  α7 Imax: 1.00 ± 0.04
Table 3
  α7 Imax: 0.97 ± 0.04
Table 4
  α7 Imax: 0.97 ± 0.04

— patent publication US20250339425A1 (Northeastern University, priority 2024, published 2025)
